These are yes or no findings as the source states them, for the method shown. Binding seen in cells or lysates may run through a third protein. Some results given as binding are weak or reduced against the parent protein; the word gives no strength.
Target: adenosine A2A receptor fused to YFP (human) (UniProt P29274)
Experiment: FRET or BRET; BRET between ß-arrestin 2-Rluc and A2AR-YFP in HEK-293T cells that also express CB1R; agonists CGS 21680 and/or ACEA for 2 min, antagonists SCH 58261 or SR 141716A, pretreatment with 1 µM methamphetamine or vehicle for 30 min

ß-arrestin 2 fused to Rluc (from UniProt P32121 1-409)
binding: binds weakly

Reference: article PMC7963146
